Measurements from article doi:10.1101/2020.10.20.346569.
Results are given in words; binding and its absence hold for the method and conditions named. For some of these results: In cells and extracts the contact can be indirect. Some binding calls cover weakened binding; strength is not graded here. For some of these results: Where a sequence is shown, tags or fusion partners need not be part of it. Values belong to the substance of their own block, whether it stands above or below them.

Protein sequences, listed by entry. Tags and fused reporters are not part of them. Lines headed by an entry give the natural chain unless they say otherwise; changes in a name come on top. Chains listed by the source or under a name are the forms on record and can include a tag or linker. Residues count along the entry.
UniProt P49841: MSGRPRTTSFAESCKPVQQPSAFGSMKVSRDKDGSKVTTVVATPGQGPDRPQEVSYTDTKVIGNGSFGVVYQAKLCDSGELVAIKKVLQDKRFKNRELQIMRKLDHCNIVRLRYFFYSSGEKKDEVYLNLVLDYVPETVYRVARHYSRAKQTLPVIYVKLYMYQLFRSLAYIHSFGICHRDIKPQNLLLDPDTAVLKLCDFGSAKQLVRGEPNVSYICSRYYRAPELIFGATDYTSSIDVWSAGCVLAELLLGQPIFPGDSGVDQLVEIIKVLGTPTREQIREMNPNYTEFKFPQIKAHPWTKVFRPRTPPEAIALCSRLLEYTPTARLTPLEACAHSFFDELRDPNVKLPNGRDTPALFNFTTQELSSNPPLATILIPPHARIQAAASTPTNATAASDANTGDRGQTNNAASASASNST
GSK3β-HOTag6: residues 35-386 of P49841
GST-GSK3β(Δ314-329) (P49841, form named): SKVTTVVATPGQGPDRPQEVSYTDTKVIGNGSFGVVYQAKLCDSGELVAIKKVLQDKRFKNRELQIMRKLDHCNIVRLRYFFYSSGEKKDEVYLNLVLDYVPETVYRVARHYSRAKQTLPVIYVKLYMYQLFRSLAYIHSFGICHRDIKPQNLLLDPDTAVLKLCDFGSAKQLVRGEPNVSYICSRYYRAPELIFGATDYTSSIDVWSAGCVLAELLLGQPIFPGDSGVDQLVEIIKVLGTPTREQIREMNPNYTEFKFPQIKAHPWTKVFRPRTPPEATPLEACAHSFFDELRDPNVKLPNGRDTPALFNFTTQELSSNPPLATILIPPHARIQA
UniProt O60573: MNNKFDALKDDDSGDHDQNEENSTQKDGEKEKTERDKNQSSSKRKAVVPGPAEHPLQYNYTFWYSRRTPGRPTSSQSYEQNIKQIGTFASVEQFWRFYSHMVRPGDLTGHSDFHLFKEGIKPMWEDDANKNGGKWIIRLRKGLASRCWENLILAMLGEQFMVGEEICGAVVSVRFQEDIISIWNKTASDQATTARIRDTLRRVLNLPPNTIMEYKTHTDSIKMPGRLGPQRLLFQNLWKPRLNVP
GST-eIF4E2(Δ231-242) (O60573, form named): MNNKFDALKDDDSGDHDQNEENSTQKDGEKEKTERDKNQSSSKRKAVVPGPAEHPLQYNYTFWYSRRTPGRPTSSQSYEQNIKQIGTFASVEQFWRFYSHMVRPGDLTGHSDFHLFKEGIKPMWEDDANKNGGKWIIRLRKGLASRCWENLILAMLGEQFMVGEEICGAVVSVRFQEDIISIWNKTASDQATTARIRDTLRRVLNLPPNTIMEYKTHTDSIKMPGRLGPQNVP

Experiments:
[1] = target: T1, endogenous RBM38 (not stated (endogenous, cell line not named)) (UniProt Q9H0Z9); experiment: co-IP
T1 sequence: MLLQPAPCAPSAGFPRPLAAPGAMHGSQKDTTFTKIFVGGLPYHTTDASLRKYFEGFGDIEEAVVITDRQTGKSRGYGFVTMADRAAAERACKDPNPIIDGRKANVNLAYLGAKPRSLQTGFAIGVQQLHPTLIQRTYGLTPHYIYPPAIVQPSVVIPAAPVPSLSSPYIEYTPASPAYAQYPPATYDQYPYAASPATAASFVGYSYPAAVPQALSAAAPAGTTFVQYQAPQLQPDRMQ

[2] = target: endogenous GSK3β (not stated (endogenous, cell line not named)) (UniProt P49841); experiment: co-IP
GST-GSK3β(Δ314-329) = GST-GSK3β(Δ314-329) (UniProt P49841); experiment: pull-down
GST-RBM38 = target: T2, GST-RBM38 (UniProt Q9H0Z9); experiment: pull-down
T2 sequence: T1 sequence

GST-eIF4E2 = GST-eIF4E2 (UniProt O60573); experiment: pull-down
GST-eIF4E2(Δ231-242) = GST-eIF4E2(Δ231-242) (UniProt O60573); experiment: pull-down
GSK3β-HOTag6 = GSK3β-HOTag6 (UniProt P49841); experiment: SPPIER

binding [1]: binds
binding [2]: binds
Substance: endogenous eIF4E2 (from UniProt O60573 1-245)

binding (GST-GSK3β(Δ314-329)): no binding
binding (GST-RBM38): binds
Substance: His-eIF4E2 (from UniProt O60573 1-245)

binding (GST-eIF4E2): binds
binding (GST-eIF4E2(Δ231-242)): no binding
Substance: His-GSK3β (from UniProt P49841 35-386) (enzyme)

binding (GSK3β-HOTag6): binds
Substance: EGFP-eIF4E2-HOTag3 (from UniProt O60573 1-245)
